From PubChem BioAssay AID1259415 (National Center for Advancing Translational Sciences (NCATS), 2018)
Out of some 410,000 compounds screened, about 18,000 (4.4%) were called active. Inconclusive results, whose numbers are uncertain, are shown with a selection of clear calls. Rule as the data show it: active = activity change below about -60%; inconclusive = no clear call, values can overlap the other calls; inactive = above about -39%.

Test: qHTS Assay for inhibitors of the human cytomegalovirus (HCMV)
Conditions: HFF cells, HCMV-luciferase reporter, 72 h; at 57.5 µM; active compounds read low
Outline: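 Human foreskin fibroblasts infected with luciferase-reporter HCMV at MOI 1 PFU/cell, compounds at two doses. Luciferase measured 72 h post infection; normalized to buffer-only basal and Salinomycin (10uM) controls.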
% is scaled to controls: 0 for no effect and ±100 for the full control effect.

| SMILES | activity change, negative = inhibition |
| --- | --- |
| Cc1ccc(Cl)cc1NC(=O)C1COc2ccccc2O1 (centres undefined) | inconclusive: -53.2% |
| Cc1ccc(C2=NS(=O)(=O)N(C)C(C(=O)NC(C)c3ccccc3)=C2)cc1 (centres undefined) | inconclusive: -51% |
| CCCn1c2ccccc2c2cnn(CC(=O)NCC3CCN(Cc4ccc(F)cc4)CC3)c(=O)c21 | inconclusive: -42.2% |
| Cc1cccc(N2CCN(C(=O)c3cccs3)CC2)c1C | inactive: 2.74% |
| CNc1ccc(Br)cc(C(=O)/C=C/c2ccc(OC)cc2OC)c1=O | active: -65.9% |
| COCCNC(=O)C(OC(=O)C1=Cc2ccccc2OC1)C(C)C (centres undefined) | inconclusive: -42.6% |
| CC(=O)N1c2ccc(S(=O)(=O)N3CCCC(C(=O)NC4CCCC(C)C4C)C3)cc2CC1C (centres undefined) | inconclusive: -42.4% |
| Cc1cc(Cl)ccc1NC(=S)NCC(C)C | active: -73.4% |
| Cc1c(NC(=S)NC(=O)CSc2ccc(Cl)cc2)cccc1C(=O)O | inactive: 17.9% |
| COc1ccc(-c2ccc(C(=O)Nc3cccc(C(C)=O)c3)c3occc23)c(C)c1 | inconclusive: -44.3% |
| CCC(C)(C)NC(=O)CSc1nc(Cc2ccccc2)nc2ccccc12 | active: -71.6% |
| N#Cc1c(N)sc(=S)c2c1CCCCC2 | inconclusive: -41.7% |
| COc1ccc(S(=O)(=O)N2CCC(C(=O)NCCCc3ccccc3)CC2)cc1 | inconclusive: -49.4% |
| O=C(c1ccc(S(=O)(=O)N2CCOCC2)cc1)N1CCOCC1 | inconclusive: -45.4% |
| COC(=O)CC1C(=O)NCCN1C(=O)CSc1nnnn1-c1ccc(OC)cc1 (centres undefined) | inconclusive: -49.3% |
| CCCCn1c(=N)c(S(=O)(=O)c2ccc(C)cc2)cc2c(=O)n3cc(C)ccc3nc21 | inactive: 17.3% |
| CCc1nn2c(=O)cc(COC(=O)c3ccc(NC(=O)CCc4ccccc4)cc3)nc2s1 | inactive: -21.7% |
| CC(=O)N1CCc2cc(S(=O)(=O)NCCC(=O)N3CCN(Cc4ccccc4)CC3)ccc21 | active: -66.1% |
| Cc1ccc(NC(=O)CSc2nc3ccccc3nc2N2CCOCC2)c(C)c1 | active: -71.4% |
| Cc1ccc(-c2nnc(Nc3ccc(OC(F)(F)Cl)cc3)c3ccccc23)cc1S(=O)(=O)NC(C)(C)CO | active: -94.8% |
| COc1ccc(NC(=S)Nc2cc(-c3ccccc3)[nH]n2)cc1Cl | inactive: 34.8% |
| O=C(Nc1cccc(NC(=O)c2ccc([N+](=O)[O-])o2)c1)c1ccco1 | inconclusive: -59.2% |
| Cc1ccc2nc(NC(=O)C3CCN(S(=O)(=O)c4cccc5nsnc45)CC3)sc2c1 | active: -85% |
| COc1ccc(NC(=O)Nc2ccc3nonc3c2)cc1 | inactive: -11.1% |

Another view of some results above.
SMILES | activity change, negative = inhibition
Cc1cc(Cl)ccc1NC(=S)NCC(C)C | active: -73.4%
N#Cc1c(N)sc(=S)c2c1CCCCC2 | inconclusive: -41.7%
